According to PubChem BioAssay AID1671190 (National Center for Advancing Translational Sciences (NCATS), 2021):
The campaign covered roughly 580,000 compounds. About 6,100 (1.1%) were called active. This list was built around the results that the source calls inconclusive (neither active nor inactive); the mix of calls is not that of the screen. The call rests on the fitted dose curve; in most records, active means well fitted inhibition curve with a large enough effect; inconclusive means small, poorly fitted or top-dose-only effect, or another doubt; inactive means no such curve, though single readings can be large or run the other way. Potencies of inconclusive entries are doubtful fits and often do not repeat.

By UniProt entry, the sequences of proteins in these tests, tags left out. Where a name states a change or a piece, a line headed by the entry shows the natural chain unless it says otherwise.
UniProt P18054: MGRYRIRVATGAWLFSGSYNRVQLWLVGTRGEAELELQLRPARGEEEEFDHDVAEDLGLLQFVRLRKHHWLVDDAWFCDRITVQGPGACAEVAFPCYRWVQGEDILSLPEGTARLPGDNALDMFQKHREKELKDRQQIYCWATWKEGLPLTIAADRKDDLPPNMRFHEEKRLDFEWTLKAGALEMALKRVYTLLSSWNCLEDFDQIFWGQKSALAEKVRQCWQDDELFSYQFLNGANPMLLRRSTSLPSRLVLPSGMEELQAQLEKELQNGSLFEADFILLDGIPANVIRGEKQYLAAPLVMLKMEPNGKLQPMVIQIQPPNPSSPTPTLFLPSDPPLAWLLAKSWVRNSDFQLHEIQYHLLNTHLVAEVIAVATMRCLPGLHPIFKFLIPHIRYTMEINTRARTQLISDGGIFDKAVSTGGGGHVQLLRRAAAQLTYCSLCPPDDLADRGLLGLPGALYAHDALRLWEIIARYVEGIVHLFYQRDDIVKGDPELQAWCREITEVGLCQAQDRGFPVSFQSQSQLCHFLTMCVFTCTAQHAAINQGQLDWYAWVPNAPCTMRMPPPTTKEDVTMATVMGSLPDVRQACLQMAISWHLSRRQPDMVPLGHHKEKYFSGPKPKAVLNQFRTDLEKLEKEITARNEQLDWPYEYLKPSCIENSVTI

Target: Polyunsaturated fatty acid lipoxygenase ALOX12 (Homo sapiens) (UniProt P18054)
Test: Primary qHTS assay for inhibitors of human arachidonate 12S-lipoxygenase (ALOX12): Round 2
Details: purified 12hLO, xylenol orange hydroperoxide absorbance; activity change, negative = inhibition: at 108 µM (top of the series) unless noted
Summary of the method: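 Hydroperoxide product was detected by ferrous iron/xylenol orange as the 573 to 405 nm absorbance ratio. Arachidonic acid at 40 uM (final) was turned over for 30 min at room temperature by 150 nM human 12hLO, pH 7.0 Hepes buffer, after 15 min compound preincubation.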
On the % scale 0 is the no-effect control and ±100 the full control effect; potency means the concentration at half of the fitted maximal effect.

Row | SMILES | activity change, negative = inhibition | Potency
1 | Cc1ccc(S(=O)(=O)N(CCc2ccccc2)CC(=O)Nc2ccccc2C)cc1 | inactive: -1.9% | –
2 | S=c1[nH]nc(-c2cccs2)n1/N=C/c1cn(-c2ccccc2)nc1-c1ccc(Cl)cc1 | – | inconclusive: 112 µM [inhibitor, single point]
3 | COc1ccc(CCN(C)C/C=C/c2ccccc2)cc1OC | – | inconclusive: 7.08 µM [inhibitor, full curve]
4 | Cc1cc(C)cc(NS(=O)(=O)c2ccc3[nH]cc(C(=O)NCCc4ccccc4)c(=O)c3c2)c1 | – | inconclusive: 14.1 µM [inhibitor, full curve, poor fit]
5 | CC1(C)CC(=O)/C(=N/Nc2ccc(Cl)cc2)CO1 | – | inconclusive: 50.1 µM [inhibitor, partial curve, poor fit]
6 | O=c1[nH]c(C2CCCN(Cc3ccc(F)cc3)C2)nn1-c1ccccc1 (stereo not drawn) | – | inconclusive: 25.1 µM [inhibitor, partial curve]
7 | Cc1ccc(C(=O)N2CCn3c4c(c5cc(C)ccc53)CCCC42)cc1 (stereo not drawn) | – | inconclusive: 158 µM [inhibitor, partial curve, poor fit]
8 | CCOC(=O)c1cc(C(=O)c2cc(Cl)ccc2O)coc1=N | – | inconclusive: 50.1 µM [inhibitor, partial curve, poor fit]
9 | Cc1ccc(C2C3CSCC=C3C(C#N)=C(N)C2(C#N)C#N)cc1 (stereo not drawn) | – | inconclusive: 7.94 µM [inhibitor, full curve, poor fit]
10 | Cc1c(C(=O)NCc2nnc3n2CCCCC3)oc2ccc(Cl)cc12 | inactive: 2.76% | –
11 | Cc1noc(NS(=O)(=O)c2ccc(NC(=O)c3ccc(F)cc3)cc2)c1C | – | inconclusive: 70.8 µM [inhibitor, partial curve, poor fit]
12 | Cc1ccccc1CSCCNC(=O)COc1ccc(Cl)cc1 | – | inconclusive: 22.4 µM [inhibitor, partial curve, poor fit]
13 | Cc1ccc(N2C(=O)C(Cl)=C(N3CCOCC3)C2=O)cc1Cl | inactive: -4.02% | –
14 | CN1CCOc2c(C(=O)NCCC(N)=O)cc(-c3ccccc3O)cc21 | inactive: 26.6% [at 176 µM] | –
15 | COC(=O)C1=C(C)N(c2ccccc2)C(=S)NC1c1cccs1 (stereo not drawn) | – | inconclusive: 126 µM [inhibitor, single point]
16 | CCc1nc2c(OCc3ccc(Cl)cc3Cl)cccn2c1N(C)C(C)=O | – | inconclusive: 5.62 µM [inhibitor, partial curve]
17 | O=C1C(O)=C(c2ccc(Cl)cc2)C(c2ccccc2F)N1Cc1ccccc1 (stereo not drawn) | – | inconclusive: 39.8 µM [inhibitor, partial curve, poor fit]
18 | Cc1ccc(N(CC(=O)NCc2ccc(F)cc2)C(=O)c2ccco2)cc1C | – | inconclusive: 7.08 µM [inhibitor, full curve, poor fit]
19 | CCOc1ccc(C(=O)Nc2cccc(C(C)=O)c2)cc1[N+](=O)[O-] | – | inconclusive: 112 µM [inhibitor, single point]
20 | COC(=O)/C(=C/c1cccc(OC)c1)c1ccccc1 | inactive: -12.3% | –
21 | O=C(c1ccc(NS(=O)(=O)c2ccc(F)cc2)cc1)N1CCCCCC1 | – | inconclusive: 56.2 µM [inhibitor, partial curve, poor fit]

Row | SMILES | activity change, negative = inhibition | Potency
22 | FC(F)Sc1ccc(NC(=S)NC(c2ccccc2)c2ccccc2)cc1 | – | active: 39.8 µM
23 | CC(O)[C@H]1CNCCN1CCc1cccc2ccccc12 (stereo partly drawn) | – | inconclusive: 44.7 µM [inhibitor, partial curve, poor fit]
24 | Cc1ccccc1CNC(=O)CSc1nnc(C)c2c(C)n(-c3ccccc3)nc12 | – | inconclusive: 112 µM [inhibitor, partial curve, poor fit]
25 | CCC(=O)c1ccc(OCC(=O)Nc2nc(-c3cccnc3)cs2)cc1 | – | inconclusive: 100 µM [inhibitor, partial curve, poor fit]
26 | COCCNC(=O)CN(Cc1ccccc1)C(=O)CCC(=O)Nc1nccs1 | – | inconclusive: 50.1 µM [inhibitor, partial curve, poor fit]
27 | CCCCc1nnc(NC(=O)c2cccc(S(=O)(=O)N3CCN(C)CC3)c2)s1 | – | inconclusive: 50.1 µM [inhibitor, partial curve, poor fit]
28 | OC1(c2ccc(Cl)cc2)CCN(Cc2cn[nH]c2-c2ccc(F)cc2)CC1 | – | inconclusive: 44.7 µM [inhibitor, partial curve, poor fit]
29 | CCCC(=O)NCc1nc2ccccc2n1C | – | inconclusive: 0.224 µM [inhibitor, full curve, poor fit]
30 | O=C(COc1ccc(Cl)cc1)Nc1nnc(S(=O)(=O)N2CCCCCC2)s1 | – | inactive
31 | CC(=O)Nc1nc(C)nc(-c2ccccc2OC(C)=O)n1 | inactive: 10.4% | –
32 | CCCCCn1nc(C(=O)NCC(=O)Nc2ccc(Br)cc2C)c2ccccc2c1=O | – | inconclusive: 50.1 µM [inhibitor, partial curve, poor fit]
33 | CC(=O)N1CCCc2cc(S(=O)(=O)N3CCC(C(=O)Nc4ccc(C)cc4Cl)CC3)ccc21 | – | inconclusive: 126 µM [inhibitor, partial curve, poor fit]
34 | COc1ccc(C2NC(=S)NC(C)=C2C(=O)c2ccccc2)cc1OC (stereo not drawn) | – | inconclusive: 50.1 µM [inhibitor, partial curve, poor fit]
35 | COc1c(Br)cc(F)cc1NC(=O)Cc1coc2cc3c(cc12)CCC3 | – | inconclusive: 44.7 µM [inhibitor, partial curve, poor fit]
36 | N#CC1=C(S)N(c2ccc(F)cc2)C(c2cccs2)NC1=O (stereo not drawn) | – | inconclusive: 70.8 µM [inhibitor, single point]
37 | O=C(N/N=C/C=C/c1ccco1)c1ccccc1Cl | – | inconclusive: 44.7 µM [inhibitor, partial curve, poor fit]
38 | CCN(CC(=O)NC(C)C)Cc1nc(-c2cccs2)oc1C | – | inconclusive: 56.2 µM [inhibitor, single point]
39 | CN1CC[C@H]2CN(C(=O)c3cnn(C)c3)C[C@@]2(C(=O)O)C1 | – | inconclusive: 7.08 µM [inhibitor, full curve, poor fit]
40 | Cc1ccc(C)c(-n2c3nc(=O)n(C)c(=O)c-3cc3ccccc32)c1 | – | inconclusive: 112 µM [inhibitor, single point]
41 | COc1cccc(NC(=O)C(Sc2nnc(-c3ccco3)n2C)c2ccccc2)c1 (stereo not drawn) | – | inconclusive: 44.7 µM [inhibitor, partial curve, poor fit]
42 | O=C(COC(=O)/C=C/c1cccc(Cl)c1Cl)Nc1ccc2[nH]c(=O)[nH]c2c1 | – | inconclusive: 79.4 µM [inhibitor, single point]

Row | SMILES | activity change, negative = inhibition | Potency
43 | O=C(NC(=S)Nc1nc2c(s1)CSc1ccccc1-2)c1ccccc1 | – | inconclusive: 3.98 µM [inhibitor, full curve, poor fit]
44 | Cc1ccccc1-c1cc(-n2ccnc2)ncn1 | – | inconclusive: 8.91 µM [inhibitor, full curve, poor fit]
45 | COc1ccc(-c2noc3c2-c2nc(-c4ccccc4F)sc2CC3)cc1 | – | active: 39.8 µM
46 | CC(C)C(N)c1csc(Nc2cc(Oc3ccccc3)ncn2)n1 (stereo not drawn) | inactive: 34% | –
47 | CCCCn1cnc2c(=S)nc(N)[nH]c21 | – | inconclusive: 39.8 µM [inhibitor, partial curve, poor fit]
48 | Cc1ccc(C(=O)NC(=S)Nc2cccnc2Cl)cc1 | – | inconclusive: 25.1 µM [inhibitor, partial curve]
49 | COc1ccccc1CN(Cc1cc2cc(C)ccc2[nH]c1=O)Cc1nnnn1Cc1ccco1 | – | inconclusive: 11.2 µM [inhibitor, partial curve, poor fit]
50 | O=C1NC[C@H](CCCCN2C[C@H](Cc3ccc(O)cc3)N(CCc3ccc(O)cc3)C(=O)C2=O)N(CC2CCCCC2)C1=O | – | inconclusive: 112 µM [inhibitor, single point]
51 | COc1ccc(/C=C(/NC(=O)c2ccco2)C(=O)N2CCc3ccccc32)cc1OC | – | inconclusive: 44.7 µM [inhibitor, partial curve, poor fit]
52 | O=C(NCC1CCCO1)c1cn(Cc2ccccc2)nc1-c1ccc(Cl)cc1 (stereo not drawn) | – | inconclusive: 112 µM [inhibitor, single point]
53 | Cc1sc(NC(=O)C2CCCCC2C(=O)O)c(C(N)=O)c1-c1ccccc1 (stereo not drawn) | – | inconclusive: 3.55 µM [inhibitor, full curve, poor fit]
54 | Cc1ccc(CN2CCN(C(=O)CC(C)C)CC2)cc1 | – | inconclusive: 3.98 µM [inhibitor, full curve, poor fit]
55 | O=C(NC1CC1)C1=C[C@@H](c2ccc3c(c2)OCO3)C[C@@H](OCCCCO)O1 | – | inconclusive: 100 µM [inhibitor, single point]
56 | O=S(=O)(c1ccc(Cl)cc1)c1nc(-c2cccc(Br)c2)oc1NCc1ccccc1 | – | inconclusive: 50.1 µM [inhibitor, partial curve, poor fit]
57 | COc1cc2c(cc1OC)C1CC(=O)C(CC(C)C)CN1CC2 (stereo not drawn) | – | inconclusive: 1.72 µM [inhibitor, full curve, poor fit]
58 | COc1ccc(CC(=O)NCCN2CCCC2)cc1 | inactive: 6.26% | –
59 | COC(=O)c1cccc(NC(=O)NC(=O)c2ccc(Cl)cc2)c1 | inactive: 0% | –
60 | O=C(O)c1ncn(Cc2ccccc2)c1C(=O)O | inactive: 25.1% | –
61 | CCCCC[C@H](C)N1C[C@H](COCc2ccccc2)Oc2cc(N3CCC[C@H]3COC)ccc2S1(=O)=O | – | inconclusive: 35.5 µM [inhibitor, partial curve]
62 | Cc1cccc(OCC(=O)N2CCCN(c3cc(-c4ccc(Cl)cc4)[nH]n3)CC2)c1 | inactive: 18.7% | –
63 | COc1ccc(F)cc1-c1cc(C(=O)NCc2ccc(F)cc2)[nH]n1 | – | inconclusive: 126 µM [inhibitor, partial curve, poor fit]

Record cards (already shown):
Cc1ccc(C(=O)N2CCn3c4c(c5cc(C)ccc53)CCCC42)cc1 (stereo not drawn) in the list: Potency: inconclusive: 158 µM [inhibitor, partial curve, poor fit]
OC1(c2ccc(Cl)cc2)CCN(Cc2cn[nH]c2-c2ccc(F)cc2)CC1 in the list: Potency: inconclusive: 44.7 µM [inhibitor, partial curve, poor fit]
Cc1ccc(N(CC(=O)NCc2ccc(F)cc2)C(=O)c2ccco2)cc1C in the list: Potency: inconclusive: 7.08 µM [inhibitor, full curve, poor fit]
